Reference: patent publication US20230147852A1
These are yes or no findings as the source states them, for the method shown.

Target: Cyno LAG3 (cynomolgus monkey)
Assay: […], antibody ([…]) at 2 µg/mL, […]

Row | Binder | binding
1 | 1C5-3A6 (antibody, V domains shown) VH: QVQLVQSGAEVKKPGASVKVSCKASGYTLTDYYIHWVRQAPGQGLEWVGWINPNSGGTNYEQKFQGRVTMTWDTSISTAYMELSRLTSDDTAVYYCAREGWSNDWYVGYYFDYWGQGTLVTVSS VL: DIQMTQSPLSLSASVGDRVSITCRASQYIGTSLNWYEQKPGNSPKLLITGASRLQSGVPSRFSGSGSGTDFTLTINTLQPDDLATYYCHQSYDDPPTFGQGTKLEIK | no binding (tested: 2 µg/mL)
2 | 8D9 (antibody, V domains shown) VH: QVQLVQSGAEVRKPGSSVKVSCKASGGTFSNYAFSWVRQAPGLGLEWLGAIIPEFDTANYAQKFKDRVTITADDSTTTVYMELSSLRSEDTAVYYCASGMWDYYGSGSSIDYWGQGTLVTVSS VL: QSVLTQPPSASGTPGQRVTISCSGSNSDIGRNPVNWYHQFPGTAPKLLIFSNSHRPSGVPDRFSGSKSGTSASLAIGGLQSDDEADYYCAAWSDSLNGYVFGTGTKLTVL | no binding (tested: 2 µg/mL)
